We go through 37 compounds from PubChem BioAssay AID2685 (National Center for Advancing Translational Sciences (NCATS), 2010).

The assay can be described thus: qHTS Assay for Lipid Storage Modulators in Drosophila S3 Cells.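 For cell number change: cells counted by Cell Tracker Red CMTPX staining in the red channel.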 As to conditions: BODIPY lipid droplet fluorescence, 18-24 h; for cell number change: measured here: cell count max response, cells fed with added oleic acid. In outline: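 Drosophila S3 cells loaded with oleic acid (400 uM, as added) and compounds at several concentrations; lipid droplets imaged by 488-nm laser-scanning cytometry, 500–530 nm intensity and object ratio to cell channel. Percent activity normalized to 20 uM Triacsin C.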
For orientation: qHTS replaces the single test concentration by a dilution series.

[1] abbreviates: measured here: lipid fluorescence (Fed channel) AC50, cells fed with added oleic acid.
[2] abbreviates: measured here: cell number channel AC50, cells fed with added oleic acid.

The list shows a part of the results. The main result of the screen is listed elsewhere. These columns were measured beside it and carry no call. Compounds called inactive in the main read-out are mostly missing here. Potencies come from curve fits of mixed quality, noted in brackets.

On to `O=C(Cn1cc(C(=O)C2CC2)c2ccccc21)Nc1ccc(F)cc1`, for which the cell number change was 33%.
In general, AC50 refers to the concentration at which the activity in the assay is half-maximal. The low end stands for greater potency, the high end for weaker potency. In the case of `COc1ccc(NC(=S)NC(NC(=O)C(C)C)C(Cl)(Cl)Cl)c([N+](=O)[O-])c1` (stereo not given), the cell number change is -22.2%. In addition, the AC50 under setting [1] is 14.6 µM [falling, partial curve, poor fit].
In the case of `O=C(NCCOc1ccccc1)C1CCC(=O)N(C2CCCCCC2)C1` (stereo not given), the AC50 was 2.06 µM [falling, partial curve] under setting [2] and 29.1 µM [falling, single point] under setting [1].
For `CC(CCc1ccco1)NC(=O)CSc1cc(=O)n(C)c2ccccc12` (stereo not given), the cell number change is 42%. Besides, under setting [2], the AC50 was 6.51 µM [rising, partial curve, poor fit]. For the same compound, under setting [1], the AC50 was 11.6 µM [rising, partial curve, poor fit].
Turning to `Cc1c(/C=N/NC(=O)C(C)(C)Oc2ccc(Cl)cc2)cnn1C`, the cell number change stood at 0.155%. Also, the AC50 under setting [2] was 0.291 µM [falling, full curve, poor fit].
For `Cc1nn(C)c(Cl)c1NC(=O)OCc1ccc(Cl)cc1Cl`, the cell number change is -22%. Moreover, under setting [1], the AC50 is 18.4 µM [falling, single point].
Take `Cc1ccc(C)c(N=Cc2c(O)c3ccccc3oc2=O)c1`: the cell number change is -4.4%.
Same read-out and setting: in the case of `Cc1ccc(C)c(CSc2nnc(-c3ccccn3)n2N)c1` it was -28.8%.
In the case of `Clc1ccc(-c2nnc(COc3ncnc4ccccc34)o2)cc1`, the cell number change was determined as 53.1%. For the same compound, the AC50 under setting [2] was 29.1 µM [rising, single point]. Moreover, under setting [1], the half-maximal activity concentration (AC50) is 29.1 µM [rising, single point].
Turning to `CC(C)C(=O)N1CCN(c2ccccc2NC(=S)NC(=O)c2cccs2)CC1`, the cell number change was found to be 14.5%. Besides, the AC50 under setting [1] was 29.1 µM [falling, partial curve].
For `O=C(COC(=O)c1cc([N+](=O)[O-])ccc1N1CCOCC1)Nc1cccc(F)c1`, the cell number change is -12.4%.
As to `CC(C)(C)CC(=O)NCCCCCCNC(=O)CC(C)(C)C`, the cell number change is 37.4%. Under setting [2], the AC50 is 29.1 µM [rising, single point].
Take `CCN1CCN(Cc2ccc(NC(=O)c3cc(NC(=O)c4cncc(-c5ccc(C#N)cc5)c4)cc(OC)c3)cc2C(F)(F)F)CC1`: the cell number change was -68.7%. Moreover, the AC50 under setting [2] is 14.6 µM [falling, partial curve]. Besides, the AC50 under setting [1] was 18.4 µM [falling, partial curve].
For `O=C(NCc1ccc2c(c1)OCO2)c1ccc2c(c1)N(Cc1c(F)cccc1Cl)C(=O)CS2`, the cell number change is -13.9%. Moreover, the half-maximal activity concentration (AC50) under setting [1] was 0.461 µM [rising, full curve].
On to `CCCc1nnc(SCC(=O)Nc2cccc(C(F)(F)F)c2)o1`, for which the cell number change was determined as 19.7%. Also, the AC50 under setting [1] was 0.116 µM [rising, full curve, poor fit].
Regarding `CCCCSc1nc(C)c(CC(=O)O)c(=O)[nH]1`, the cell number change came to 0.696%. The half-maximal activity concentration (AC50) under setting [1] was 0.92 µM [falling, full curve].
Take `O=C(N(c1ccccn1)c1ccccn1)C12CC3CC(CC(C3)C1)C2`: the cell number change was -28.7%. Further, the concentration at half-maximal activity (AC50) under setting [1] is 29.1 µM [falling, partial curve, poor fit].
`CCOc1ccc(-c2nnc(-c3cccnc3)o2)cc1OCC`: the cell number change was -9.79%. For the same compound, the concentration at half-maximal activity (AC50) under setting [1] was 0.00461 µM [rising, full curve, poor fit].
As to `COc1ccc(OC)c(NC(=O)c2cc(S(=O)(=O)N(C)C)ccc2N2CCCC2)c1`, the cell number change was -1.18%.
As for `CC1=CC(C)[C@@H]2COC(c3ccc(O)cc3)[C@H]1C2C` (stereo not given in full), the cell number change is -55.7%. Moreover, the AC50 under setting [2] is 8.2 µM [falling, partial curve]. Under setting [1], the concentration at half-maximal activity (AC50) was 14.6 µM [falling, partial curve, poor fit].
Consider `Cc1cccc(C)c1NC(=S)N1CCC(N(C)CC2CCCO2)CC1` (stereo not given), for which the concentration at half-maximal activity (AC50) under setting [1] is 23.1 µM [falling, partial curve].
Regarding `O=C(NC1CCSC1=O)C1CC(=O)N(c2ccc(F)cc2)C1` (stereo not given), the cell number change was 9.57%. Besides, under setting [1], the half-maximal activity concentration (AC50) is 29.1 µM [rising, partial curve].
Turning to `O=C(Nc1ccc(C(=O)c2ccc(C(=O)O)c(C(=O)O)c2)cc1)c1ccccc1`, the cell number change is 19.8%. Further, the concentration at half-maximal activity (AC50) under setting [1] is 29.1 µM [falling, single point].
As for `Cc1cc(-c2ccccc2)n(-c2cc(N/N=C/c3ccccc3O)ncn2)n1`, the cell number change stood at 3.92%. Under setting [2], the AC50 was 6.51 µM [falling, single point]. Besides, the AC50 under setting [1] was 4.11 µM [falling, full curve].
On to `CC(=O)c1cc(CN2C(=O)c3ccccc3C2=O)cs1`, for which the cell number change was -1.44%. For the same compound, the half-maximal activity concentration (AC50) under setting [2] was 0.517 µM [rising, full curve]. Further, the AC50 under setting [1] is 0.517 µM [rising, full curve].
Take `CC1=C(CO)C(=O)OC([C@@H](C)C2CC[C@H]3C4C[C@H]5O[C@]56[C@@H](O)C=CC(=O)[C@]6(C)C4CC[C@]23C)C1` (stereo not given in full): the cell number change is -66.1%. Also, the AC50 under setting [2] is 29.1 µM [falling, single point]. Under setting [1], the AC50 is 32.6 µM [falling, single point].
On to `CC(=O)c1cnn(-c2cc(Oc3cccc(C)c3)ncn2)c1C`, for which the cell number change came out at 0.13%.
As to `CCn1c(=O)n(CC)c2cc(S(N)(=O)=O)c(C)cc21`, the cell number change is -14.2%. Besides, under setting [1], the AC50 was 0.651 µM [falling, full curve].
In the case of `COc1ccc(C(C#N)Nc2ccc(C)cc2)cc1` (stereo not given), the cell number change turned out to be 18.9%. Also, the AC50 under setting [1] was 18.4 µM [falling, partial curve].
As to `Cc1c(NC(=O)Oc2ccccc2)sc(=S)n1C`, the cell number change stood at 12.8%. Also, under setting [1], the AC50 is 6.51 µM [falling, single point].
Turning to `COc1cc(OC)c(C(=O)O/N=C(\N)c2ccccc2)cc1OC`, the cell number change is 4.63%. Further, the AC50 under setting [2] was 0.00517 µM [rising, full curve, poor fit].
Take `CC1Cc2ccccc2N1C(=O)CN1C(=O)CN(C)C(=O)c2ccccc21` (stereo not given): the cell number change was 16.5%.
Turning to `Clc1ccsc1-c1ccnc(-n2cccc2)n1`, the cell number change is -21.5%. Moreover, the AC50 under setting [2] was 0.58 µM [falling, full curve]. In addition, the AC50 under setting [1] is 0.461 µM [falling, full curve].
In the case of `CN1CCN(c2oc(Cc3cccc4ccccc34)nc2C#N)CC1`, the cell number change amounted to 18.2%. Further, the AC50 under setting [1] was 23.1 µM [rising, single point].
`O=c1c2[nH]cnc2n(-c2ccccc2)c(=O)n1Cc1ccccc1`: the cell number change is -23.6%. Besides, under setting [1], the AC50 was 29.1 µM [rising, single point].
As for `O=C(CN1C(=O)c2ccccc2S1(=O)=O)N1CCN(c2ccc(F)cc2)CC1`, the cell number change turned out to be 27.1%. Moreover, the AC50 under setting [1] was 6.51 µM [rising, single point].
`CC1(C)CC(=O)C2=C(C1)NC(=O)CC2C(=O)NCc1ccc(F)cc1` (stereo not given): the cell number change was -98.8%. In addition, the AC50 under setting [2] is 18.4 µM [falling, partial curve]. Further, under setting [1], the concentration at half-maximal activity (AC50) was 7.31 µM [falling, single point].
